Reference: paper PMC8712183
No constants are given. Whether binding was seen depends on the method and setting. Binding seen in cells or lysates may run through a third protein. Some entries that bind do so weakly or less than the wild type.

Chains of the proteins cited; added tags and fusions are not shown.
UniProt P12956: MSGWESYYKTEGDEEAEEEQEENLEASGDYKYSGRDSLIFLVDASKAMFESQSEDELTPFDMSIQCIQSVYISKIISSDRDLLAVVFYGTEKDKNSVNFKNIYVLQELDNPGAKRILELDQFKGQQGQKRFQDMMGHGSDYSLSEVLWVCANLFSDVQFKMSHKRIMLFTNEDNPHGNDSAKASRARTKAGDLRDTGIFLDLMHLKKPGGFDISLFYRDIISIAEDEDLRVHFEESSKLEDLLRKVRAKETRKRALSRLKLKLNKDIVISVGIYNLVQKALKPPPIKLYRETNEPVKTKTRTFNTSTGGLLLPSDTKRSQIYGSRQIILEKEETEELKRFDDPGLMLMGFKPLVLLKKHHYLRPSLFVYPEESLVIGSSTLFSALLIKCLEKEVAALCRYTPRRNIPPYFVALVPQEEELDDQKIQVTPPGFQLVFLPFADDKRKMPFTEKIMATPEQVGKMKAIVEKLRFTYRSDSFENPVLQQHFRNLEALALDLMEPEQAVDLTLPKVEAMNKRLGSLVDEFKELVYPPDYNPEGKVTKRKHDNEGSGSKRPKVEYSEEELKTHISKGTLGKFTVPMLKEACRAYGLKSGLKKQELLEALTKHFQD

T1: testicular expression 10 (TEX10) (human (endogenous in T24)) (UniProt Q9NXF1)
T1 sequence: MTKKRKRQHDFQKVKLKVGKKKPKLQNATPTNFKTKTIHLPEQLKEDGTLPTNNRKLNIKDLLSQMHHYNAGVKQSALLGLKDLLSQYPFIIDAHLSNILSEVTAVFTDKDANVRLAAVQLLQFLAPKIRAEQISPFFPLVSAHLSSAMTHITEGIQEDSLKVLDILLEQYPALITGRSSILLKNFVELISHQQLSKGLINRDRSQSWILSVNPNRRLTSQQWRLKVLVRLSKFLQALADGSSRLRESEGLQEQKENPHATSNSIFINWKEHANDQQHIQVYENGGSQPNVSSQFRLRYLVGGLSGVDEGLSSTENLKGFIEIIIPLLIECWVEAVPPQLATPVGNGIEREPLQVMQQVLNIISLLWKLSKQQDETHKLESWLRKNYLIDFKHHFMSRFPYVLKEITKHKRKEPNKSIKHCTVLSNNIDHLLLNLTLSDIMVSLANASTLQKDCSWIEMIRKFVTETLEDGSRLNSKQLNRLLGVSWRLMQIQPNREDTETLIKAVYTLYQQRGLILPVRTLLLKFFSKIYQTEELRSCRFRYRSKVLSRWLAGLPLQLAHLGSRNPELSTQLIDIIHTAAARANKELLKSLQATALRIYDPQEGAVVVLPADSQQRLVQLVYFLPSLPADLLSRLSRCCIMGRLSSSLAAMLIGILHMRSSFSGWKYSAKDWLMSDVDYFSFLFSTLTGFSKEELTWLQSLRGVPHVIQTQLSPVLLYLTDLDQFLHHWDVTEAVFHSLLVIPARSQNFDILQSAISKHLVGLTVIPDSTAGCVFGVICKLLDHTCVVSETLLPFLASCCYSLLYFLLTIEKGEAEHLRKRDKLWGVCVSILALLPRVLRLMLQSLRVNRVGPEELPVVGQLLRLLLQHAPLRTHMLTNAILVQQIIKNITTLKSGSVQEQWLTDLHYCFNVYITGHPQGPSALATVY


Columns and labels:
[1] = biological target: T1, testicular expression 10 (TEX10) (human (endogenous in T24)); experiment: co-IP; endogenous proteins; T24 cell extract in modified RIPA lysis buffer (50 mM Tris-HCl pH 7.4, 150 mM NaCl, 1% Nonidet P-40, 0.25% sodium deoxycholate, 1 mM EDTA); primary antibody (anti-TEX10 or anti-XRCC6) or control IgG overnight at 4°C, protein A/G magnetic beads 3 h, three washes, immunoblot
[2] = biological target: XRCC6/Ku70 (human (endogenous in T24)) (UniProt P12956); experiment: as above

Row | binding [1] | binding [2] | Molecule
1 | binds | – | XRCC6/Ku70 (from UniProt P12956 1-609)
2 | – | binds | testicular expression 10 (TEX10) (protein, UniProt Q9NXF1 1-929) MTKKRKRQHDFQKVKLKVGKKKPKLQNATPTNFKTKTIHLPEQLKEDGTLPTNNRKLNIKDLLSQMHHYNAGVKQSALLGLKDLLSQYPFIIDAHLSNILSEVTAVFTDKDANVRLAAVQLLQFLAPKIRAEQISPFFPLVSAHLSSAMTHITEGIQEDSLKVLDILLEQYPALITGRSSILLKNFVELISHQQLSKGLINRDRSQSWILSVNPNRRLTSQQWRLKVLVRLSKFLQALADGSSRLRESEGLQEQKENPHATSNSIFINWKEHANDQQHIQVYENGGSQPNVSSQFRLRYLVGGLSGVDEGLSSTENLKGFIEIIIPLLIECWVEAVPPQLATPVGNGIEREPLQVMQQVLNIISLLWKLSKQQDETHKLESWLRKNYLIDFKHHFMSRFPYVLKEITKHKRKEPNKSIKHCTVLSNNIDHLLLNLTLSDIMVSLANASTLQKDCSWIEMIRKFVTETLEDGSRLNSKQLNRLLGVSWRLMQIQPNREDTETLIKAVYTLYQQRGLILPVRTLLLKFFSKIYQTEELRSCRFRYRSKVLSRWLAGLPLQLAHLGSRNPELSTQLIDIIHTAAARANKELLKSLQATALRIYDPQEGAVVVLPADSQQRLVQLVYFLPSLPADLLSRLSRCCIMGRLSSSLAAMLIGILHMRSSFSGWKYSAKDWLMSDVDYFSFLFSTLTGFSKEELTWLQSLRGVPHVIQTQLSPVLLYLTDLDQFLHHWDVTEAVFHSLLVIPARSQNFDILQSAISKHLVGLTVIPDSTAGCVFGVICKLLDHTCVVSETLLPFLASCCYSLLYFLLTIEKGEAEHLRKRDKLWGVCVSILALLPRVLRLMLQSLRVNRVGPEELPVVGQLLRLLLQHAPLRTHMLTNAILVQQIIKNITTLKSGSVQEQWLTDLHYCFNVYITGHPQGPSALATVY
